Experimental data: the supplement of paper PMC10849652
The other results are listed elsewhere or left out.

By UniProt entry, the sequences of proteins in these tests, tags left out. Where a name states a change or a piece, a line headed by the entry shows the natural chain unless it says otherwise.
UniProt P30038: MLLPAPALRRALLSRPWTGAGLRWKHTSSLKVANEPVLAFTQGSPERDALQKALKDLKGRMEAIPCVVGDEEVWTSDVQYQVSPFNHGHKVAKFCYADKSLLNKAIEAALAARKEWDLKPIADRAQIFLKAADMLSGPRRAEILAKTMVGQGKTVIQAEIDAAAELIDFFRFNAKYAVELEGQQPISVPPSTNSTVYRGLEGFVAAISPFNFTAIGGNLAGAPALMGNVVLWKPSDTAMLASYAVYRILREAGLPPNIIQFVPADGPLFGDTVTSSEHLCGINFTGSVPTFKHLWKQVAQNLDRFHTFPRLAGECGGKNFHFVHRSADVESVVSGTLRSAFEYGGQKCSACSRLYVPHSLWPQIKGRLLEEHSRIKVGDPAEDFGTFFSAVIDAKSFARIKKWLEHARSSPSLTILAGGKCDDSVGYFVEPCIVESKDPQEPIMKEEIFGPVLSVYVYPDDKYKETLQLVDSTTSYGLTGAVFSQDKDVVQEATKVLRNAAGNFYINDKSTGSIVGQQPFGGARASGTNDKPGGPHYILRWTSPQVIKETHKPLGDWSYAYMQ
UniProt O75179: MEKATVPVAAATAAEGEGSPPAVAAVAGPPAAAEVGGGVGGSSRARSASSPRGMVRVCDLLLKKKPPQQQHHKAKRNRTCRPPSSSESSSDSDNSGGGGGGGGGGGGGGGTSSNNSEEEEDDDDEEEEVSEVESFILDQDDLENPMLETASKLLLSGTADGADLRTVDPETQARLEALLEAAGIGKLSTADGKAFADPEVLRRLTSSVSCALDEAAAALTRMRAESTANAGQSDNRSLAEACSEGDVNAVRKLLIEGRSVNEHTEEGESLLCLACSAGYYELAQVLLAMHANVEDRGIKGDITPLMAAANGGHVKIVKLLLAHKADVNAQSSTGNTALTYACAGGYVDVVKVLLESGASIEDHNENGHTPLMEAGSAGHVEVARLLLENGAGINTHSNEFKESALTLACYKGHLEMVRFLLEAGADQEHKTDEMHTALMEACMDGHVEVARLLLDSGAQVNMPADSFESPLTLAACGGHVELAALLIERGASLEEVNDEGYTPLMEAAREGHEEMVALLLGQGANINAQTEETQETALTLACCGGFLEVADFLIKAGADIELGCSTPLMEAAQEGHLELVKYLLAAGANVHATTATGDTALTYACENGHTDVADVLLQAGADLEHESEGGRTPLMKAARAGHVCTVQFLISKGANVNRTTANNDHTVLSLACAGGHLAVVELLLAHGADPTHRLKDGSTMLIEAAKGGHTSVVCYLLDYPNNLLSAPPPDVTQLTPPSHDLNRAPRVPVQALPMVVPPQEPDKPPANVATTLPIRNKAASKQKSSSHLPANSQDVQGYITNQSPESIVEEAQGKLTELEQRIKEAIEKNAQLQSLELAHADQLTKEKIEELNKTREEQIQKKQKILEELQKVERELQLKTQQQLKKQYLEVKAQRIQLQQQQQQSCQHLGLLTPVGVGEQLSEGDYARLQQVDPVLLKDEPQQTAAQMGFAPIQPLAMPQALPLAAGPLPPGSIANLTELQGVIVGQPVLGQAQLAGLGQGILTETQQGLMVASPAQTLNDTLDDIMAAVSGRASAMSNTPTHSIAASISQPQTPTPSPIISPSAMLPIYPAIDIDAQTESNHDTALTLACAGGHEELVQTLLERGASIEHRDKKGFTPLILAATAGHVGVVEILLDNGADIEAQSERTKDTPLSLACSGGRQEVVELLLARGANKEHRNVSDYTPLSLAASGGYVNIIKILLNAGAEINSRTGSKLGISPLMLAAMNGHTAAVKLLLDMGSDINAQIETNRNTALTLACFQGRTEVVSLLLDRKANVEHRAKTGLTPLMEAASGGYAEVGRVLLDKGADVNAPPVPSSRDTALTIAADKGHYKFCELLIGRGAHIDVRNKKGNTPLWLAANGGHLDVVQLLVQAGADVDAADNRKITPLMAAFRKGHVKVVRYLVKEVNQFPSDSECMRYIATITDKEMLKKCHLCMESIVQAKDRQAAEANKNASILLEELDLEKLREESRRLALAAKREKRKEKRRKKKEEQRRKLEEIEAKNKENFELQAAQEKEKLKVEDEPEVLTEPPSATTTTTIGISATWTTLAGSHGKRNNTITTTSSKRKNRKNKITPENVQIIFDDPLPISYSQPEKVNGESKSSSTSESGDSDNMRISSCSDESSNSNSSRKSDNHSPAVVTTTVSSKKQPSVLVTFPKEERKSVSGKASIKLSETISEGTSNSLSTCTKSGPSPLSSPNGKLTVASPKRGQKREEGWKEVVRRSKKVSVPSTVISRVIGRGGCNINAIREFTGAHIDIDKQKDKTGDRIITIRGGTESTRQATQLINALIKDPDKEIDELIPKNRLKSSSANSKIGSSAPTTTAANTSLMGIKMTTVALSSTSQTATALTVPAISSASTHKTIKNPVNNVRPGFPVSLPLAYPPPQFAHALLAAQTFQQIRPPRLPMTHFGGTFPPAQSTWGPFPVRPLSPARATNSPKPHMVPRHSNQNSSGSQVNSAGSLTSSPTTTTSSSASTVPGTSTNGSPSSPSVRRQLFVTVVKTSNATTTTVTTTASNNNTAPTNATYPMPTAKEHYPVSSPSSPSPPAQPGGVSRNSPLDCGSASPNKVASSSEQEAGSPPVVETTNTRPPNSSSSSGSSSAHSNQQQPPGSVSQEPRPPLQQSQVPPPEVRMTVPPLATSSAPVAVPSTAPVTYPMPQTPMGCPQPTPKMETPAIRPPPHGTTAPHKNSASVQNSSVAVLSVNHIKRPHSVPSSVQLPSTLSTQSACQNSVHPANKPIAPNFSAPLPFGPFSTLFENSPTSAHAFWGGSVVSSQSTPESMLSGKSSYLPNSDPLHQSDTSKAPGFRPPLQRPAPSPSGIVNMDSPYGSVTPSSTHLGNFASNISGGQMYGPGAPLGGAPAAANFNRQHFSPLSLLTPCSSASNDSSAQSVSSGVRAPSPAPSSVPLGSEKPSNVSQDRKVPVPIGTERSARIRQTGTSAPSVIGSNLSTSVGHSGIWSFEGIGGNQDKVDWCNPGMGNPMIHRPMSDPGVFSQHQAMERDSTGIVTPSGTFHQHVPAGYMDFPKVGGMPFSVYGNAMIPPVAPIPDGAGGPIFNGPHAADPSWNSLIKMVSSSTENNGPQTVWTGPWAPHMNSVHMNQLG
UniProt Q92572: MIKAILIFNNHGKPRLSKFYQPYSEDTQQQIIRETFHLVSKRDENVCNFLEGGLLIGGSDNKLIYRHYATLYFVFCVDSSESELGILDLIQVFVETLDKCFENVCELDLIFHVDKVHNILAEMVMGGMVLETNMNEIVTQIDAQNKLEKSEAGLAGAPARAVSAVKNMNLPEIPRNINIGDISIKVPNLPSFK
UniProt Q6ZTN6: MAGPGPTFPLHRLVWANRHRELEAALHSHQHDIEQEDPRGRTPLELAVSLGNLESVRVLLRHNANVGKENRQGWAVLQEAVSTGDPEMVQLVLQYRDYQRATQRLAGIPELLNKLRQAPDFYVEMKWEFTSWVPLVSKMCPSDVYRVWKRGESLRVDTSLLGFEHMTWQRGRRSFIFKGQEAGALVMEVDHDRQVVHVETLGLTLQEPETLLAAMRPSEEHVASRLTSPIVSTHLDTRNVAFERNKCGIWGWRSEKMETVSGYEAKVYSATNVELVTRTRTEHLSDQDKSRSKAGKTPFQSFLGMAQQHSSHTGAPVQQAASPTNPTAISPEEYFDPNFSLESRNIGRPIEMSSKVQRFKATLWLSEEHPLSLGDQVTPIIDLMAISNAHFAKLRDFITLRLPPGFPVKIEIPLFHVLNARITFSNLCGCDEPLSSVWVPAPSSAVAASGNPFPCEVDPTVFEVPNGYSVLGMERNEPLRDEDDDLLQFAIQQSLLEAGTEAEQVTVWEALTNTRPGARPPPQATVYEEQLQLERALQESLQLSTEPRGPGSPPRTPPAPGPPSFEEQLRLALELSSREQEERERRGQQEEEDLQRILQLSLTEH
UniProt P56377: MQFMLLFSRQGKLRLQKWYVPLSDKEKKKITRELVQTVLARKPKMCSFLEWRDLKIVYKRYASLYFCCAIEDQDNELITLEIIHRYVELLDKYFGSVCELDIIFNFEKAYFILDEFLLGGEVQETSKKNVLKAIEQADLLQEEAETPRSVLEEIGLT
UniProt Q92625: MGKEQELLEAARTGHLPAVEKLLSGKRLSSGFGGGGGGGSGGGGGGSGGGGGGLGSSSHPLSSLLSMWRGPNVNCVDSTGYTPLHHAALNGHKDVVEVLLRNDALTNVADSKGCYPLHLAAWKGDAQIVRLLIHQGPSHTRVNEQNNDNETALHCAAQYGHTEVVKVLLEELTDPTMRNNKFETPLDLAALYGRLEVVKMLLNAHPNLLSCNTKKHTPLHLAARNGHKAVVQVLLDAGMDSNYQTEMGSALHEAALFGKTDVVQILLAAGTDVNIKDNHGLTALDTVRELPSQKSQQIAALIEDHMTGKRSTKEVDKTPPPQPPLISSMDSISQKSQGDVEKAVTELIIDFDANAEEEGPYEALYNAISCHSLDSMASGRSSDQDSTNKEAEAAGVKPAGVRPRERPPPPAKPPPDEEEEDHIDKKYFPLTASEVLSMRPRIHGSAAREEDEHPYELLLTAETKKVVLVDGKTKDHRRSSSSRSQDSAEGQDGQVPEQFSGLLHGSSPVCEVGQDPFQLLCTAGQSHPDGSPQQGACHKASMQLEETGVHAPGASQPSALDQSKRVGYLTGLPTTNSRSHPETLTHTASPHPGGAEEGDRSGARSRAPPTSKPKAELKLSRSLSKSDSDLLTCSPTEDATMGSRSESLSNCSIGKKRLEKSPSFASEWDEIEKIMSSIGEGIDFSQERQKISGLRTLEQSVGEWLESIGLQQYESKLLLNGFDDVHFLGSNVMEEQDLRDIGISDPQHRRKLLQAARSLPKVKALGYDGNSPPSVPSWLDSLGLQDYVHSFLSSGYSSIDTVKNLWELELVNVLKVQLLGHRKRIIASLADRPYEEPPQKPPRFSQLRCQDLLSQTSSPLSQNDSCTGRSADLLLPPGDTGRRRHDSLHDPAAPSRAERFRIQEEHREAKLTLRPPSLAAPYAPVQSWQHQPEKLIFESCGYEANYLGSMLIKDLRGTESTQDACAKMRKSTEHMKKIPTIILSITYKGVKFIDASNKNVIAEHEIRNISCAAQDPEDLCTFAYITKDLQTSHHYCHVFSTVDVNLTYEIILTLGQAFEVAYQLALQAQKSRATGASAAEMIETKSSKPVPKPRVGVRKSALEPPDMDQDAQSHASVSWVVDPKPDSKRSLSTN
UniProt Q9Y673: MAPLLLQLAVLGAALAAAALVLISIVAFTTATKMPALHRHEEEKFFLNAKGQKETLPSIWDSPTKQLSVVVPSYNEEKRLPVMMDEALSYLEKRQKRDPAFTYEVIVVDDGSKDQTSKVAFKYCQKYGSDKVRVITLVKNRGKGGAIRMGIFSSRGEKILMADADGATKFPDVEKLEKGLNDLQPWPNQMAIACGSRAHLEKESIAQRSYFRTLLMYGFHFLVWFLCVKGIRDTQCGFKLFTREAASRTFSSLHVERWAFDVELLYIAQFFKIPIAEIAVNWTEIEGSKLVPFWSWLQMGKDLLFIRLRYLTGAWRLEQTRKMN
UniProt O43747: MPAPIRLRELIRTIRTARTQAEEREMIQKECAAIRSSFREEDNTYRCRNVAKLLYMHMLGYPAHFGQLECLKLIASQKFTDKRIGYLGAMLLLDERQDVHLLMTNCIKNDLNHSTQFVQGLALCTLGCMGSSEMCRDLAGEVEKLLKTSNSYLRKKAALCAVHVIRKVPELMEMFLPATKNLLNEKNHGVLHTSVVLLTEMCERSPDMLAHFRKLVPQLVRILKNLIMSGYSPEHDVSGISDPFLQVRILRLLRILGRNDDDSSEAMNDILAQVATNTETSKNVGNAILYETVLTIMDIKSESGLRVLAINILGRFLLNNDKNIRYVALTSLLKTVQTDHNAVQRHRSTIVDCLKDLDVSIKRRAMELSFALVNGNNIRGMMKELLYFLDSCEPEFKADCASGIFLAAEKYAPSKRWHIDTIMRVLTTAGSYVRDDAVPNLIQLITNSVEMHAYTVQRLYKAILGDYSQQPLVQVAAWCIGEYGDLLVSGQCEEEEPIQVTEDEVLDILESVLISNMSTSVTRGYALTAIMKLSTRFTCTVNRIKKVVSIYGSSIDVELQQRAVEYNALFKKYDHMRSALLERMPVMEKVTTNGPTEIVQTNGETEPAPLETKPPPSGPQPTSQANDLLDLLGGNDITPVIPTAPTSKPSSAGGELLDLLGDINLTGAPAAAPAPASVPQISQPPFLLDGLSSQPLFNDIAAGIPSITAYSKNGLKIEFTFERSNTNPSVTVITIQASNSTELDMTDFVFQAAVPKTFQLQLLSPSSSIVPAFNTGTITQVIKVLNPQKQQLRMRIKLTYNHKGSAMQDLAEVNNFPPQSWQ

Key:
Test in all cases: log2 fold change, soluble protein after heating vs DMSO (PISA); higher = thermal stabilisation; K562 lysate, 10 uM; active = over 0.2 and 3.5 SD of the protein, either way, in both replicates (recomputed)
lapatinib = compound: CS(=O)(=O)CCNCc1ccc(-c2ccc3ncnc(Nc4ccc(OCc5cccc(F)c5)c(Cl)c4)c3c2)o1 [lapatinib]
Method in brief: (§1)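 Log-two fold change in thermal stability relative to solvent controls is reported from duplicates. For each sample, crude K562 extract from dounce-homogenised pellets in PBS pH 7.4 with 1 mM MgCl2, at 1 mg/mL protein, was treated with 10 μM compound for 30 min. Aliquots heated for 3 min across 48°C-58°C were pooled, brought to 0.5% NP-40 at 4°C and cleared at 21,000xg for 90 min. The supernatant was quantified by TMTpro 16plex LC-MS/MS with channel sums equalised.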

pictilisib = compound: CS(=O)(=O)N1CCN(Cc2cc3nc(-c4cccc5[nH]ncc45)nc(N4CCOCC4)c3s2)CC1 [pictilisib]
Method in brief: as §1

crizotinib = compound: C[C@@H](Oc1cc(-c2cnn(C3CCNCC3)c2)cnc1N)c1c(Cl)ccc(F)c1Cl [crizotinib]
Method in brief: as §1

[1] = compound: C[C@H](C1=CC=C(C=C1)C(=O)NC2=C3C=CNC3=NC=C2)N
Method in brief: as §1

duvelisib = compound: C[C@H](Nc1ncnc2nc[nH]c12)c1cc2cccc(Cl)c2c(=O)n1-c1ccccc1 [duvelisib]
Method in brief: as §1

gandotinib = compound: Cc1cc(Nc2cc(CN3CCOCC3)c3nc(C)c(Cc4ccc(Cl)cc4F)n3n2)n[nH]1 [gandotinib]
Method in brief: as §1

tozasertib = compound: Cc1cc(Nc2cc(N3CCN(C)CC3)nc(Sc3ccc(NC(=O)C4CC4)cc3)n2)n[nH]1 [tozasertib]
Method in brief: as §1

doramapimod = compound: Cc1ccc(-n2nc(C(C)(C)C)cc2NC(=O)Nc2ccc(OCCN3CCOCC3)c3ccccc23)cc1 [doramapimod]
Method in brief: as §1

bafetinib = compound: Cc1ccc(NC(=O)c2ccc(CN3CC[C@H](N(C)C)C3)c(C(F)(F)F)c2)cc1Nc1nccc(-c2cncnc2)n1 [bafetinib]
Method in brief: as §1

[2] = compound: Cc1cccc(CC(=O)N2CCc3c2ccc(-c2cn(C)c4ncnc(N)c24)c3F)n1
Method in brief: as §1

nilotinib = compound: Cc1cn(-c2cc(NC(=O)c3ccc(C)c(Nc4nccc(-c5cccnc5)n4)c3)cc(C(F)(F)F)c2)cn1 [nilotinib]
Method in brief: as §1

[3] = compound: Cc1nc(Nc2n[nH]c3c2CN(C(=O)N[C@H](CN(C)C)c2ccccc2)C3(C)C)c2sccc2n1
Method in brief: as §1

dasatinib = compound: Cc1nc(Nc2ncc(C(=O)Nc3c(C)cccc3Cl)s2)cc(N2CCN(CCO)CC2)n1 [dasatinib]
Method in brief: as §1

[4] = compound: Cc1ncc(-c2ccnc(Nc3ccc(S(C)(=O)=O)cc3)n2)n1C(C)C
Method in brief: as §1

[5] = compound: Cn1cc(-c2ccc3c(c2)CCN3C(=O)Cc2cccc(C(F)(F)F)c2)c2c(N)ncnc21
Method in brief: as §1

quisinostat = compound: Cn1cc(CNCC2CCN(c3ncc(C(=O)NO)cn3)CC2)c2ccccc21 [quisinostat]
Method in brief: as §1

tipifarnib = compound: Cn1cncc1[C@@](N)(c1ccc(Cl)cc1)c1ccc2c(c1)c(-c1cccc(Cl)c1)cc(=O)n2C [tipifarnib]
Method in brief: as §1

[6] = compound: NC(=O)Nc1cc(-c2cccc(F)c2)sc1C(=O)N[C@H]1CCCNC1
Method in brief: as §1

[7] = compound: NC(=O)c1cnc(N[C@@H]2CCCC[C@@H]2N)nc1Nc1cccc(-n2nccn2)c1
Method in brief: as §1

[8] = compound: NC1(c2ccc(-c3nc4ccn5c(=O)[nH]nc5c4cc3-c3ccccc3)cc2)CCC1
Method in brief: as §1

Measured: log2 fold change

ANXA2 isoform 2 (UniProt P07355)
inactive: lapatinib 0.009 | pictilisib -0.005 | crizotinib 0.029 | [1] 0.017 | duvelisib -0.028 | gandotinib 0.008 | tozasertib -0.001 | doramapimod -0.024 | bafetinib 0.065 | [2] -0.041 | nilotinib 0.035 | [3] -0.016 | dasatinib 0.048 | [4] 0.003 | [5] -0.017 | quisinostat 0.064 | tipifarnib 0.016 | [6] -0.018 | [7] -0.015 | [8] 0.022

ALDOC (UniProt P09972)
inactive: lapatinib 0.069 | pictilisib 0.035 | crizotinib 0.061 | [1] -0.037 | duvelisib 0.005 | gandotinib -0.009 | tozasertib -0.009 | doramapimod -0.008 | bafetinib 0.271 | [2] -0.04 | nilotinib 0 | [3] 0.059 | dasatinib 0.04 | [4] 0.004 | [5] -0.004 | quisinostat 0.042 | tipifarnib 0.013 | [6] -0.022 | [7] -0.009 | [8] 0

ALDH4A1 (UniProt P30038)
inactive: lapatinib 0.047 | pictilisib -0.017 | crizotinib -0.022 | [1] 0.015 | duvelisib 0.045 | gandotinib -0.03 | tozasertib -0.002 | doramapimod -0.026 | bafetinib -0.023 | [2] 0.037 | nilotinib -0.005 | [3] 0.022 | dasatinib -0.01 | [4] 0.008 | [5] -0.04 | quisinostat -0.029 | tipifarnib -0.022 | [6] 0.071 | [7] -0.003 | [8] 0.028

ANK3 (UniProt Q12955)
inactive: lapatinib -0.01 | pictilisib -0.033 | crizotinib -0.057 | [1] -0.062 | duvelisib -0.013 | gandotinib 0.014 | tozasertib 0.001 | doramapimod 0.036 | bafetinib -0.05 | [2] 0.041 | nilotinib 0.054 | [3] 0.008 | dasatinib -0.025 | [4] -0.048 | [5] 0.029 | quisinostat -0.082 | tipifarnib 0 | [6] 0.017 | [7] 0 | [8] -0.011

ANKRD17 (UniProt O75179)
inactive: lapatinib -0.012 | pictilisib -0.03 | crizotinib -0.043 | [1] -0.059 | duvelisib 0.02 | gandotinib 0.031 | tozasertib -0.017 | doramapimod -0.125 | bafetinib -0.032 | [2] 0.051 | nilotinib -0.012 | [3] -0.022 | dasatinib -0.026 | [4] -0.008 | [5] 0.016 | quisinostat 0.018 | tipifarnib -0.035 | [6] 0.045 | [7] 0.004 | [8] 0.012

AP2B1 isoform 2 (UniProt P63010)
inactive: lapatinib 0.002 | pictilisib 0.01 | crizotinib -0.015 | [1] -0.082 | duvelisib 0.009 | gandotinib 0.062 | tozasertib -0.011 | doramapimod 0.036 | bafetinib 0.005 | [2] 0.016 | nilotinib -0.015 | [3] 0.004 | dasatinib 0.01 | [4] 0.015 | [5] -0.004 | quisinostat -0.007 | tipifarnib -0.012 | [6] -0.023 | [7] -0.015 | [8] -0.001

AP3S1 (UniProt Q92572)
inactive: lapatinib -0.015 | pictilisib 0.013 | crizotinib 0.006 | [1] -0.046 | duvelisib -0.009 | gandotinib 0.018 | tozasertib -0.022 | doramapimod 0.041 | bafetinib -0.015 | [2] 0.092 | nilotinib -0.006 | [3] 0 | dasatinib -0.028 | [4] 0.006 | [5] -0.013 | quisinostat -0.014 | tipifarnib 0.037 | [6] -0.009 | [7] 0.028 | [8] -0.018

Reprinted from the entries so far (2 entries):
AP2B1 isoform 2 (UniProt P63010)
inactive: lapatinib 0.002 | pictilisib 0.01 | crizotinib -0.015 | [1] -0.082 | duvelisib 0.009 | gandotinib 0.062 | tozasertib -0.011 | doramapimod 0.036 | bafetinib 0.005 | [2] 0.016 | nilotinib -0.015 | [3] 0.004 | dasatinib 0.01 | [4] 0.015 | [5] -0.004 | quisinostat -0.007 | tipifarnib -0.012 | [6] -0.023 | [7] -0.015 | [8] -0.001

AP3S1 (UniProt Q92572)
inactive: lapatinib -0.015 | pictilisib 0.013 | crizotinib 0.006 | [1] -0.046 | duvelisib -0.009 | gandotinib 0.018 | tozasertib -0.022 | doramapimod 0.041 | bafetinib -0.015 | [2] 0.092 | nilotinib -0.006 | [3] 0 | dasatinib -0.028 | [4] 0.006 | [5] -0.013 | quisinostat -0.014 | tipifarnib 0.037 | [6] -0.009 | [7] 0.028 | [8] -0.018

Remaining list, next part:

ANKRD13D isoform 3 (UniProt Q6ZTN6)
inactive: lapatinib 0.027 | pictilisib -0.063 | crizotinib -0.093 | [1] 0.021 | duvelisib -0.024 | gandotinib 0 | tozasertib 0.169 | doramapimod 0.061 | bafetinib -0.078 | [2] -0.028 | nilotinib 0.086 | [3] -0.035 | dasatinib -0.006 | [4] -0.027 | [5] -0.071 | quisinostat 0.024 | tipifarnib -0.078 | [6] 0.012 | [7] -0.019 | [8] -0.019

AP1S2 isoform 2 (UniProt P56377)
inactive: lapatinib -0.009 | pictilisib 0.004 | crizotinib -0.011 | [1] -0.351 | duvelisib 0.035 | gandotinib 0.058 | tozasertib 0.04 | doramapimod 0.182 | bafetinib 0.01 | [2] 0.121 | nilotinib -0.034 | [3] -0.04 | dasatinib -0.07 | [4] 0.029 | [5] -0.077 | quisinostat -0.251 | tipifarnib 0.004 | [6] 0.03 | [7] 0 | [8] 0.094

ALDH2 (UniProt P05091)
inactive: lapatinib 0 | pictilisib 0 | crizotinib -0.02 | [1] -0.012 | duvelisib -0.03 | gandotinib 0.011 | tozasertib 0.023 | doramapimod -0.023 | bafetinib 0.017 | [2] -0.077 | nilotinib 0.028 | [3] -0.017 | dasatinib 0.014 | [4] -0.013 | [5] 0.001 | quisinostat 0.121 | tipifarnib 0.039 | [6] 0.001 | [7] 0.016 | [8] -0.003

ANKRD30A (UniProt Q9BXX3)
active: gandotinib 1.59
inactive: lapatinib -0.228 | pictilisib 0.028 | crizotinib 0.128 | [1] -0.155 | duvelisib -0.038 | tozasertib 0.281 | doramapimod -0.068 | bafetinib 0.069 | [2] 0.918 | nilotinib -0.008 | [3] -0.012 | dasatinib 0.006 | [4] -0.039 | [5] -0.017 | quisinostat 0.179 | tipifarnib 0.15 | [6] 0.047 | [7] 0.807

AP3B1 (UniProt O00203)
inactive: lapatinib 0.003 | pictilisib 0 | crizotinib -0.016 | [1] -0.024 | duvelisib -0.002 | gandotinib 0.02 | tozasertib 0.034 | doramapimod 0.031 | bafetinib -0.017 | [2] 0.031 | nilotinib -0.003 | [3] 0.03 | dasatinib -0.038 | [4] -0.002 | [5] 0.005 | quisinostat -0.009 | tipifarnib -0.017 | [6] -0.001 | [7] -0.003 | [8] 0.012

ALG9 isoform 3 (UniProt Q9H6U8)
inactive: lapatinib -0.036 | pictilisib -0.075 | crizotinib 0.031 | [1] -0.008 | duvelisib 0.004 | gandotinib -0.001 | tozasertib 0.032 | doramapimod -0.1 | bafetinib -0.047 | [2] 0.027 | nilotinib 0.05 | [3] 0.068 | dasatinib -0.078 | [4] 0.027 | [5] 0.046 | quisinostat 0.076 | tipifarnib 0.003 | [6] 0.078 | [7] -0.015 | [8] 0.023

ANKS1A (UniProt Q92625)
inactive: lapatinib -0.011 | pictilisib 0.032 | crizotinib -0.035 | [1] -0.158 | duvelisib 0.007 | gandotinib 0.117 | tozasertib -0.029 | doramapimod 0.009 | bafetinib -0.029 | [2] 0.127 | nilotinib -0.012 | [3] -0.023 | dasatinib -0.006 | [4] 0.017 | [5] 0.018 | quisinostat -0.055 | tipifarnib -0.037 | [6] -0.002 | [7] -0.011 | [8] -0.019

ALG5 (UniProt Q9Y673)
inactive: lapatinib 0.025 | pictilisib 0.007 | crizotinib 0.003 | [1] -0.069 | duvelisib -0.001 | gandotinib 0.011 | tozasertib 0.033 | doramapimod 0.014 | bafetinib 0.005 | [2] 0.02 | nilotinib -0.042 | [3] -0.037 | dasatinib 0.027 | [4] -0.04 | [5] -0.091 | quisinostat 0.045 | tipifarnib -0.033 | [6] 0.019 | [7] 0.007 | [8] 0.005

AP1G1 isoform 2 (UniProt O43747)
inactive: lapatinib -0.007 | pictilisib -0.022 | crizotinib -0.048 | [1] -0.088 | duvelisib -0.012 | gandotinib 0.053 | tozasertib -0.01 | doramapimod 0.016 | bafetinib -0.038 | [2] 0.034 | nilotinib -0.002 | [3] 0 | dasatinib 0.03 | [4] 0.003 | [5] -0.016 | quisinostat -0.055 | tipifarnib -0.004 | [6] -0.007 | [7] -0.002 | [8] -0.012
